{"source": "paper PMC8341399", "about": "“A STING-based fluorescent polarization assay for monitoring activities of cyclic dinucleotide metabolizing enzymes” (RSC Chemical Biology, 2020)", "test_system": "hENPP1", "experiment": "ENPP1 cGAMP hydrolysis tracking, HPLC analysis", "type": "biochemical, human", "conditions": "ENPP1 9.16 nM, 50 μM cGAMP, 30 min", "note": "Certain results were filed several times, with different values. This list holds those alone. There may be further records. Values that stand side by side differ for a reason that is not stated; they may come from other doses, times, organisms or constructs than stated."}
{"smiles": "Nc1nc2c(ncn2[C@@H]2O[C@@H]3COP(=O)(O)O[C@H]4[C@@H](O)[C@H](n5cnc6c(N)ncnc65)O[C@@H]4COP(=O)(O)O[C@@H]2[C@@H]3O)c(=O)[nH]1", "note": "[cGAMP, 2′3-cGAMP]", "values": [{"measurement": "cGAMP percent cleavage HPLC", "result": "over 70% and 72%"}]}
